Data as given in PubChem BioAssay AID652272 (Drosophila RNAi Screening Center, 2013)

- Aim: 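Genes whose knock-down decreases or increases Hedgehog reporter output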 (primary screen)
- Cells: Drosophila clone 8 (Cl8) cells
- Knock-down reagent: long dsRNA against Drosophila genes
- Detection: 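Firefly light from a Hedgehog-responsive ptc promoter reporter and Renilla reference light, both read on a plate reader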
- Direction: firefly Hh reporter signal: higher = more ptc reporter light; Renilla reference signal: higher = more Renilla control light
- Rule for the call: 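Hit when the z-score averaged over two replicates is under -2 or over +3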
- Calls: active = hit: reporter lowered or raised; inactive = not a hit
The screen tested about 21,000 reagents; this is a random part of those that have a named target and a result. Of all reagents, 503 (2.4%) got an active call. 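Raw plate light values, not normalised; calls rest on replicate z-scores that were not deposited; hits include reporter decreases as well as increases.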 Entries without a mark were called inactive. Reagents against one gene are numbered here. A plus sign joins genes that one reagent is predicted to hit. Not given: the amount of reagent, the time to read-out.

gene | dsRNA no. | firefly Hh reporter signal, replicate 1 | firefly Hh reporter signal, replicate 2 | Renilla reference signal, replicate 1 | Renilla reference signal, replicate 2
MagR (Magnetic receptor) | 1 | 74899 | 2.30e5 | 2634 | 9057
Ip259 (Intronic Protein 259) | 1 | 52375 | 30045 | 2954 | 1890
CG40341 (retired record) | 1 | 1.44e5 | 2.85e5 | 4652 | 14044
CG40341 (retired record) | 2 | 1.49e5 (active) | 2.38e5 | 5239 | 14436
disco-r (disco-related) | 1 | 80520 | 2.31e5 | 2204 | 10064
disco-r (disco-related) | 2 | 87863 | 2.27e5 | 2192 | 8763
CG31075 | 1 | 94705 | 98834 | 3410 | 2752
CG17600 | 1 | 1.41e5 | 3.02e5 | 4642 | 13480
CG17600 | 2 | 57594 | 2.41e5 | 2336 | 11088
Ilk (Integrin linked kinase) | 1 | 4.63e5 | 1.05e5 | 4680 | 4680
nAChRalpha4 (nicotinic Acetylcholine Receptor alpha4) | 1 | 2.77e5 | – | 5058 | –
nAChRalpha4 (nicotinic Acetylcholine Receptor alpha4) | 2 | 4.22e5 | – | 8443 | –
CG8765 | 1 | 58144 | 68923 | 2791 | 2469
CG17349 | 1 | 84515 | 40964 | 2500 | 4440
CG5916 | 1 | 1.12e5 | 79179 | 4720 | 3154
CG30098 | 1 | 1.17e5 | 2.17e5 | 3149 | 9536
CG5172 | 1 | 1.15e5 | 2.83e5 | 2566 | 12119
CG9784 | 1 | 79456 | 1.73e5 | 3036 | 7269
Magi | 1 | 1.00e5 | 78339 | 3757 | 2917
Magi | 2 | 1.26e5 | 49980 | 3088 | 1612
CG43673 + CG43672 | 1 | 99068 | 2.56e5 | 3222 | 8445
CG43673 + CG43672 | 2 | 75984 | 1.96e5 | 2369 | 7228
CG13538 | 1 | 1.33e5 | 71001 | 3616 | 6773
clumsy | 1 | 93452 | 81815 | 2022 | 5665
CG10576 | 1 | 83248 | 89984 | 4103 | 3831
Osi17 (Osiris 17) | 1 | 66458 | 1.11e5 | 2396 | 3312
KP78a + KP78b | 1 | 84608 | 72616 | 3122 | 2043
KP78a + KP78b | 2 | 83181 | 90640 | 2442 | 2256
out (outsiders) | 1 | 1.28e5 | 87810 | 3181 | 2073
CG1632 | 1 | 5.58e5 | 1.71e5 | 29957 | 3424
CG1632 | 2 | 98610 | 3.38e5 | 2752 | 11021
CG13245 | 1 | 82340 | 86840 | 4064 | 3681
CG16888 | 1 | 1.09e5 | 54845 | 3110 | 5188
CG4853 | 1 | 1.28e5 | 1.07e5 | 5738 | 4571
CG4822 | 1 | 1.27e5 | 1.22e5 | 4807 | 3669
CG15879 | 1 | 62181 | 55325 | 1590 | 4219
CG12986 | 1 | 1.30e5 | 2.48e5 | 4950 | 10866
mthl7 (methuselah-like 7) | 1 | 31586 | 59952 | 1659 | 3008
CG17646 | 1 | 1.47e5 | 1.22e5 | 5873 | 4869

5 entries already listed, sorted by “Renilla reference signal, replicate 2”, lowest first:
gene | dsRNA no. | firefly Hh reporter signal, replicate 1 | firefly Hh reporter signal, replicate 2 | Renilla reference signal, replicate 1 | Renilla reference signal, replicate 2
Magi | 2 | 1.26e5 | 49980 | 3088 | 1612
Magi | 1 | 1.00e5 | 78339 | 3757 | 2917
CG43673 + CG43672 | 2 | 75984 | 1.96e5 | 2369 | 7228
CG9784 | 1 | 79456 | 1.73e5 | 3036 | 7269
CG43673 + CG43672 | 1 | 99068 | 2.56e5 | 3222 | 8445
